Measured data: PubChem BioAssay AID504804 (Drosophila RNAi Screening Center, 2011)

Test: 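dsRNAs that improve Kc cell survival under doxorubicin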 (primary screen)
Cell system: Drosophila Kc cells
Knock-down reagent: long dsRNA against Drosophila genes, 0.5 µg dsRNA per well
Duration: 96 h (48 h knock-down, then 48 h drug)
Conditions: doxorubicin 5 µg/ml for 48 h, added 48 h after dsRNA
Measured: 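Luminescent ATP counts per replicate, not normalised, reflecting viable cells after 48 h dsRNA knock-down followed by 48 h of 5 µg/ml doxorubicin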
Reading the numbers: raw ATP luminescence: higher = more viable cells, protection from doxorubicin
Hit rule: 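z-score of 2 or more over plate mean in both duplicates, retained only when retests and separate dsRNAs confirm the protection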
The screen tested about 19,000 reagents; this is an unselected part of those that have a named target and a result. Over the whole deposit, 47 (0.25%) are marked active. 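Signals are raw, not normalised; exact z-scores behind calls not deposited; actives needed confirmation, so some wells reaching 2 SD are inactive.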 Unmarked entries are inactive.

| Target gene | DRSC id | raw ATP luminescence, replicate 1 | raw ATP luminescence, replicate 2 |
| --- | --- | --- | --- |
| INPP5E | DRSC09723 | 56243 | 59783 |
| kay | DRSC13962 | 2.11e5 | 2.19e5 |
| kay | DRSC15048 | 17290 | 15370 |
| CG5726 | DRSC06946 | 38280 | 51883 |
| CG32170 | DRSC09452 | 79870 | 98753 |
| TrissinR | DRSC02334 | 25443 | 29513 |
| TrissinR | DRSC02335 | 24270 | 23207 |
| TrissinR | DRSC02336 | 29513 | 27523 |
| Tsc1 | DRSC16890 | 43177 | 42330 |
| Rb97D | DRSC16815 | 27380 | 29720 |
| CG11597 | DRSC09847 | 43847 | 42917 |
| CG30109 | DRSC05675 | 1.91e5 | 1.48e5 |
| CG2915 | DRSC06842 | 37833 | 42290 |
| CG13369 | DRSC18481 | 41770 | 47350 |
| Pdss2 | DRSC11625 | 20993 | 18953 |
| shakB | DRSC20492 | 4.17e5 | 3.94e5 |
| shakB | DRSC20585 | 3.19e5 | 3.47e5 |
| dgt4 | DRSC18659 | 41670 | 56980 |
| CG31735 | DRSC01518 | 2.75e5 | 2.28e5 |
| Cyt-b5 | DRSC07392 | 46547 | 41427 |
| CG17944 | DRSC12572 | 64523 | 57987 |
| Grx1t | DRSC04530 | 48513 | 50187 |
| CG10910 | DRSC06007 | 2.14e5 | 2.11e5 |
| CG32026 | DRSC08950 | 1.45e5 | 1.73e5 |
| MAN1 | DRSC04342 | 61357 | 66420 |
| Deaf1 | DRSC11143 | 59123 | 53753 |
| tey | DRSC11042 | 80793 | 67670 |
| Dop1R2 | DRSC13958 | 1.92e5 | 2.26e5 |
| Dop1R2 | DRSC15379 | 55220 | 50920 |
| CG31082 (retired record) | DRSC13775 | 1.40e5 | 1.38e5 |
| CG10098 | DRSC12509 | 52960 | 21607 |
| fray | DRSC16950 | 58440 | 54450 |
| CG31810 | DRSC01560 | 2.93e5 | 2.55e5 |
| Vha68-2 | DRSC02721 | 59117 | 68707 |
| CG7203 | DRSC03026 | 54900 | 77523 |
| RpS19b | DRSC15773 | 42290 | 43840 |
| adp | DRSC06916 | 61797 | 61210 |
| Cpr78Ca | DRSC11651 | 60997 | 61153 |
| Gr8a | DRSC18043 | 2.97e5 | 2.89e5 |
| CG31663 | DRSC00078 | 3.13e5 | 3.13e5 |
| CG31663 | DRSC00389 | 1.04e5 | 74463 |
| CG31663 | DRSC00390 | 1.60e5 | 1.98e5 |
| E(z) | DRSC11147 | 30063 | 31407 |
| RpS23 | DRSC07169 | 44423 | 57080 |
| AsnS | DRSC11468 | 66083 | 77297 |
| CG18088 | DRSC02654 | 41370 | 75943 |
| CG31816 | DRSC01547 | 2.80e5 | 2.42e5 |
| Tssk | DRSC14784 | 64650 | 59230 |
| Hey | DRSC07440 | 11380 | 17503 |
| CG10321 | DRSC04061 | 1.47e5 | 1.61e5 |
| CG30271 | DRSC04170 | 50287 | 47700 |
| Chro | DRSC11630 | 23093 | 26093 |
| CG7381 | DRSC16238 | 50197 | 30603 |
| ASPP | DRSC04305 | 21903 | 21143 |
| CG7985 | DRSC14128 | 40747 | 37363 |
| Gpo1 | DRSC07128 | 46967 | 58843 |
| CG7970 | DRSC08605 | 47133 | 71703 |

A stretch taken from the entries so far:
| Target gene | DRSC id | raw ATP luminescence, replicate 1 | raw ATP luminescence, replicate 2 |
| --- | --- | --- | --- |
| CG31735 | DRSC01518 | 2.75e5 | 2.28e5 |
| Cyt-b5 | DRSC07392 | 46547 | 41427 |
| CG17944 | DRSC12572 | 64523 | 57987 |
